Data published in PMC12397275.
Results are given in words; binding and its absence hold for the method and conditions named. For some of these results: Binding seen in cells or lysates may run through a third protein. Some results given as binding are weak or reduced against the parent protein; the word gives no strength. For some of these results: Sequences can lack the tags named with a protein.

By UniProt entry, the sequences of proteins in these tests, tags left out. Where a name states a change or a piece, a line headed by the entry shows the natural chain unless it says otherwise.
UniProt P61758: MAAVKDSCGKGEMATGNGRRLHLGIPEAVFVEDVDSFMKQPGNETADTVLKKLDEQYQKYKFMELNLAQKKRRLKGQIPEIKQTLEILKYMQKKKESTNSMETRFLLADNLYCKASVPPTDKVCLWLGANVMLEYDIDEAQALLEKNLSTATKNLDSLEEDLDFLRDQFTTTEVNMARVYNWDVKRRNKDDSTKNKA
UniProt O60925: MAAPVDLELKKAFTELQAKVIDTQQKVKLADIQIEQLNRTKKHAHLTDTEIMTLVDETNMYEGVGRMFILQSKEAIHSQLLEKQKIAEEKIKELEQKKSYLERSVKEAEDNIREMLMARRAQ
UniProt Q8TBC4: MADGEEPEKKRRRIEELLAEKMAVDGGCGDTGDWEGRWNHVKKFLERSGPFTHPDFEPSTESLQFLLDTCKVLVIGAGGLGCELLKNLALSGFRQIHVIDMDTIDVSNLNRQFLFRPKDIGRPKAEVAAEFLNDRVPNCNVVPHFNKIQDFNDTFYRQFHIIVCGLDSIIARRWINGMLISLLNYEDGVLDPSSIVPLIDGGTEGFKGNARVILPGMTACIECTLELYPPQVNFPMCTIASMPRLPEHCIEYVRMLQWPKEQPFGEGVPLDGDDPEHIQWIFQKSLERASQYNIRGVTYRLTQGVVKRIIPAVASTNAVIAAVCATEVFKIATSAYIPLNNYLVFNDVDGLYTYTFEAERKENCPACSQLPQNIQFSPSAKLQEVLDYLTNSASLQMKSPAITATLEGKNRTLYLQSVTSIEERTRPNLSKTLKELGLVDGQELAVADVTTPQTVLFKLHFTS

Experiments:
His-CDPK1 (toxoplasma) = target: T1, His-CDPK1 (toxoplasma) (UniProt Q9BJF5); test: pull-down; both purified
T1 sequence: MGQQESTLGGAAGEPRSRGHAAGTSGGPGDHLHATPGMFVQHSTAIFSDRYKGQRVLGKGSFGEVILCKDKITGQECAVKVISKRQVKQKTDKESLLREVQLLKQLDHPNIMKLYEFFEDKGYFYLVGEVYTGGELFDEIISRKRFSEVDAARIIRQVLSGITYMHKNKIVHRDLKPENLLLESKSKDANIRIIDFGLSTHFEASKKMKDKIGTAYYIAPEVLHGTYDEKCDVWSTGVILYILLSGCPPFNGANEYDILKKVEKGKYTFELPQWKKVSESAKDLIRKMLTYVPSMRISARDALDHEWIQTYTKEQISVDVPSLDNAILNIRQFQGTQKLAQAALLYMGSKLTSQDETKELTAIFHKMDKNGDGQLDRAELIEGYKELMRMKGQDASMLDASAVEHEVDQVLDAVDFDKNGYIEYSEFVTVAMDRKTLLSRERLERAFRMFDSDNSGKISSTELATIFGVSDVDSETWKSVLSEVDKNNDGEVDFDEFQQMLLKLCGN

His-PFDN3 (human) [1] = target: His-PFDN3 (human) (UniProt P61758); test: BLI; both purified
His-PFDN3 (human) [2] = target: His-PFDN3 (human) (UniProt P61758); test: pull-down; both purified
[3] = target: PFDN complex (Myc-tagged PFDN1-6 subunits) (UniProt O60925); test: co-IP

Question: For “PFDN3 protein (His tag removed) (from UniProt P61758 1-197)”, which binding (His-CDPK1 (toxoplasma)) is on record?
Answer: no binding

Question: For GST-UBA3 (from UniProt Q8TBC4 1-463), which binding (His-PFDN3 (human) [1]) is on record?
Answer: binds

Question: What about the binding (His-PFDN3 (human) [2]) of the same substance?
Answer: binds

Question: “endogenous UBA3 (from UniProt Q8TBC4 1-463)” was tested. Which binding [3] did it give?
Answer: binds
